{"sequences": {"note": "Chains of the proteins cited; added tags and fusions are not shown.", "UniProt P56963": "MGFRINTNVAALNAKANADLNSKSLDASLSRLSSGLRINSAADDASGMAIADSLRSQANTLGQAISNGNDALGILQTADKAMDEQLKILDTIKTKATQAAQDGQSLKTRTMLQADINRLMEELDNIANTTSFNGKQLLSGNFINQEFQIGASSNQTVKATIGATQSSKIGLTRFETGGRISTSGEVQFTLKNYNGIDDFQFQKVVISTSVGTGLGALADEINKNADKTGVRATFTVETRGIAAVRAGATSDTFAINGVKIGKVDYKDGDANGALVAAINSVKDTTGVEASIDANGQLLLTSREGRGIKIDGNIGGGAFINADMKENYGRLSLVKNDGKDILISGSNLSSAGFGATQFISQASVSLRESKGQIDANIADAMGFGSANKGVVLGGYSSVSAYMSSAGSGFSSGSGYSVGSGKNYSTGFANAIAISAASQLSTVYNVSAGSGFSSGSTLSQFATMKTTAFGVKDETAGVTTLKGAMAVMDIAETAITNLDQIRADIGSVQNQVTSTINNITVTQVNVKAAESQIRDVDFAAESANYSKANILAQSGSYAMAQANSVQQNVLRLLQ"}, "source": "paper PMC4894983", "binders": {"B1": {"name": "CsrA-mCherry (C. jejuni CsrA, Cj1103, with C-terminal mCherry) (protein, UniProt Q0P9F1 1-75)", "chain": "MLILSRKENESIIIGEGIEIKVVQTGKGYAKIGIEAPKSLMILRKELVQQVKDENLHSVVQNDIKLDDLSKKLIK"}, "B2": {"name": "FliW-mCherry (flagellar assembly factor FliW, Cj1075, with C-terminal mCherry) (protein, UniProt Q0P9H9 1-129)", "chain": "MTLAVKCPILGFEETKNMEFSTIDEVFVRLKSLDGKDFSFVLINPYLIRPDYEFDIPTYYQELLSLTPESNMKIFNIVAIAKSIEESTVNFLAPVVINLDNNTMVQVILDTVNYPDFFQADQIANYIKK"}}, "key": {"[1]": {"molecular_target": "T1, FliW-3xFLAG (flagellar assembly factor FliW, Cj1075, with C-terminal 3xFLAG) (Campylobacter jejuni) (UniProt Q0P9H9)", "T1 sequence": "B2 chain", "test": "co-IP; 3xFLAG-tagged bait precipitated from C. jejuni lysate with anti-FLAG M2 antibody and Protein A-Sepharose; Buffer A (20 mM Tris-HCl pH 8.0, 150 mM KCl, 1 mM MgCl2, 1 mM DTT), 4 °C, five washes; mCherry-tagged partner detected by western blot"}, "[2]": {"molecular_target": "FlaA-3xFLAG (major flagellin FlaA, Cj1339c, with C-terminal 3xFLAG) (Campylobacter jejuni) (UniProt P56963)", "test": "co-IP; 3xFLAG-tagged bait precipitated from C. jejuni lysate with anti-FLAG M2 antibody and Protein A-Sepharose; Buffer A (20 mM Tris-HCl pH 8.0, 150 mM KCl, 1 mM MgCl2, 1 mM DTT), 4 °C, five washes; mCherry-tagged partner detected by western blot"}}, "note": "Results are given in words; binding and its absence hold for the method and conditions named. In cells and extracts the contact can be indirect. Some results given as binding are weak or reduced against the parent protein; the word gives no strength. Where a sequence is shown, tags or fusion partners need not be part of it.", "data": [{"binder": "B1", "values": [{"measurement": "binding", "setting": "[1]", "value": "binds"}]}, {"binder": "B2", "values": [{"measurement": "binding", "setting": "[2]", "value": "binds"}]}]}
